Experimental data reported in US20160031958A1, “METHODS AND COMPOSITIONS USEFUL IN MANIPULATING THE STABILITY OF RE1 SILENCING TRANSCRIPTION FACTOR” (OREGON HEALTH & SCIENCE UNIVERSITY, priority 2014, published 2016).
Changes are numbered by the printed parent chain. These are yes or no findings as the source states them, for the method shown. Binding seen in cells or lysates may run through a third protein. Some entries that bind do so weakly or less than the wild type. Where a sequence is shown, tags or fusion partners need not be part of it.

Chains of the proteins cited; added tags and fusions are not shown.
UniProt Q9Y297: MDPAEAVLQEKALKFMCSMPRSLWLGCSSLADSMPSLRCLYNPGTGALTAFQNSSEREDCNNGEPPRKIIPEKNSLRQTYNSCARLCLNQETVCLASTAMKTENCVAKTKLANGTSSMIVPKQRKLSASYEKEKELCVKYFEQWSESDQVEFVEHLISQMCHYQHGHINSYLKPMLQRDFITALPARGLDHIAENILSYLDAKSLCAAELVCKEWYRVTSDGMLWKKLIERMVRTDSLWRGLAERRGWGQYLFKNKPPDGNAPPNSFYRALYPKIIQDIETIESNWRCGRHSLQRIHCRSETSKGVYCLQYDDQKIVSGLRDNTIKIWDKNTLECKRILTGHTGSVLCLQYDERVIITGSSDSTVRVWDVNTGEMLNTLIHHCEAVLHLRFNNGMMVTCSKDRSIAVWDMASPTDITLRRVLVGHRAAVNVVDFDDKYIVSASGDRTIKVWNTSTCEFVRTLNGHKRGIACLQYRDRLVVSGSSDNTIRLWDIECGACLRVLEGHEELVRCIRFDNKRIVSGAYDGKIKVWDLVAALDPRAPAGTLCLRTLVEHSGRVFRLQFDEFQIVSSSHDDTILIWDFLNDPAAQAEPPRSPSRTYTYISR
UniProt Q9UKL0: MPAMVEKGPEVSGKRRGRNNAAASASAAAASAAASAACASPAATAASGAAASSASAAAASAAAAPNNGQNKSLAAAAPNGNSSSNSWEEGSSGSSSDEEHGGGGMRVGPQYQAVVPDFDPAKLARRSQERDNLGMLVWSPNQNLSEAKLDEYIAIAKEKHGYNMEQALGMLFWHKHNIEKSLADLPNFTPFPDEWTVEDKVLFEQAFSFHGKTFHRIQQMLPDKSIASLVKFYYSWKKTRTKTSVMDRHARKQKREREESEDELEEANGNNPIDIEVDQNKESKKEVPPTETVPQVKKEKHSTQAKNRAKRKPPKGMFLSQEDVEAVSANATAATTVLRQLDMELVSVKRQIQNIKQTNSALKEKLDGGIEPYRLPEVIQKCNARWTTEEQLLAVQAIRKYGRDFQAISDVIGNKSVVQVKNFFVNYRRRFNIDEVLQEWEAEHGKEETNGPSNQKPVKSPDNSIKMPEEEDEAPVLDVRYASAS

Legend:
[1] = biological target: T1, HA-REST (unmutated wild type, full-length RE1 Silencing Transcription factor) (human) (UniProt Q13127); assay: GST pull-down from co-transfected HEK cells, Western blot
T1 sequence (serines 861 and 864 phosphorylated in cells, extent not stated, looked up): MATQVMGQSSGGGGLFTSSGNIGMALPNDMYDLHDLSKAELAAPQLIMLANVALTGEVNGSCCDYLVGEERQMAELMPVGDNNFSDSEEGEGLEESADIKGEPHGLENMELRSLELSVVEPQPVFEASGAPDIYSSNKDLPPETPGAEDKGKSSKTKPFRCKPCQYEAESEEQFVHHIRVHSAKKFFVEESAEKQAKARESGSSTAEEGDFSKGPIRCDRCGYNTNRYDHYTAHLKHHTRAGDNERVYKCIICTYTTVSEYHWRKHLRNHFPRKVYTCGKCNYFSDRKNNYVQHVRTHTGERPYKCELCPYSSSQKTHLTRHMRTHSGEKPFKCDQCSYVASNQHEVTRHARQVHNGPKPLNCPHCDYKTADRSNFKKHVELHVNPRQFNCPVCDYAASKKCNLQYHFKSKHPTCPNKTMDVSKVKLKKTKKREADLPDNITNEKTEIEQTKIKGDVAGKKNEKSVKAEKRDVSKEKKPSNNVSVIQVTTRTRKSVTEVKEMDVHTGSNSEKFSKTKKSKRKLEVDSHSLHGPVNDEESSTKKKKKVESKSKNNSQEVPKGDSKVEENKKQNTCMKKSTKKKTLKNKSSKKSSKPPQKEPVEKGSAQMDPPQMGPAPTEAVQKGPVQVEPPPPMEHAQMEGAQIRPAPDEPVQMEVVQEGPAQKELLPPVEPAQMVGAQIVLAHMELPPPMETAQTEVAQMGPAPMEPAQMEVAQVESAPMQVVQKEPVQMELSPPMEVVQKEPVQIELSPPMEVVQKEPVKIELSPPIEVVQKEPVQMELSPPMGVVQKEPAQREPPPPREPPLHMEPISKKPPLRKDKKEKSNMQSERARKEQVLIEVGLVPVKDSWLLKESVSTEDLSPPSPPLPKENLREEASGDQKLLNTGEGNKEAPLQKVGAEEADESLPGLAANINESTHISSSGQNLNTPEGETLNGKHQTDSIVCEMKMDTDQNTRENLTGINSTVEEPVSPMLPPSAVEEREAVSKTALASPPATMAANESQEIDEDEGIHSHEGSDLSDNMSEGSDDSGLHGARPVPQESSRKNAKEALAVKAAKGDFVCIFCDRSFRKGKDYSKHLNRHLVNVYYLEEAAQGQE

[2] = biological target: T1, HA-REST (unmutated wild type, full-length RE1 Silencing Transcription factor) (human); assay: GST pull-down from co-transfected HEK293T cells, Western blot
[3] = biological target: T2, FLAG-REST (unmutated, full-length) (human) (UniProt Q13127); assay: co-immunoprecipitation from transfected HEK293T cells with or without the Pin1 inhibitor PiB, Western blot
T2 sequence (serines 861 and 864 phosphorylated in cells, extent not stated, looked up): T1 sequence (serines 861 and 864 phosphorylated in cells, extent not stated, looked up)

[4] = biological target: T3, S861A/S864A REST (full-length; tag not stated for this experiment) (human) (UniProt Q13127); assay: co-immunoprecipitation, Western blot
T3 sequence (looked up): T1 sequence (serines 861 and 864 phosphorylated in cells, extent not stated, looked up) with S861A, S864A

[5] = biological target: T4, REST (unmutated, full-length; tag not stated for this experiment) (human) (UniProt Q13127); assay: co-immunoprecipitation from transfected HEK cells, Western blot
T4 sequence (serines 861 and 864 phosphorylated in cells, extent not stated, looked up): T1 sequence (serines 861 and 864 phosphorylated in cells, extent not stated, looked up)

[6] = biological target: T3, S861A/S864A REST (full-length; tag not stated for this experiment) (human); assay: as above

Measured: binding

GST-βTrCP (from UniProt Q9Y297 1-605)
binds: [1] | [2] | [3]

CoREST (from UniProt Q9UKL0 1-485)
binds: [4] | [5] | [6]
